PubChem BioAssay AID1508597, Cure First | 2020
This is a random part of about 2,100 reagents. 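Calls flag viability under 80% in either arm, not effects specific to rucaparib; the reference for percent is not stated.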 Entries without a mark were called inactive. No sequences are given here. Not given: the 100% reference.

- Purpose: 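Genes whose silencing sensitises or protects ovarian cancer cells against rucaparib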 (primary screen)
- Cell system: human ovarian carcinoma lines grown from tumours: OCI-P5x (papillary serous) and OCI-C5x (clear cell)
- Reagent: siRNA pool against human genes, 1.25 pmol siRNA per well
- Timing: 72 h or 96 h, depending on the cell culture
- Treatment: rucaparib 20 µM (about IC30) or vehicle, present until read-out
- Read-out: 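Luminescent ATP-based viability assay read 72 or 96 h after transfection, depending on culture, given as normalised percent viability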
- Scale: viability, normalised: higher = more viable cells remaining
- Call rule: 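a well counts as a hit if its normalised viability is under 80 percent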
- Calls: active = viability under 80%; inactive = viability 80% or more

no.	target gene	rucaparib or vehicle	cell line	technical replicate	viability, normalised (%)
1	RIOX2	Rucaparib	OCI-C5x (clear cell)	1	37 (active)
2	RIOX2	Rucaparib	OCI-C5x (clear cell)	2	34.7 (active)
3	RIOX2	Rucaparib	OCI-C5x (clear cell)	3	46.2 (active)
4	RIOX2	Rucaparib	OCI-P5x (serous)	1	55.6 (active)
5	RIOX2	Rucaparib	OCI-P5x (serous)	2	68.4 (active)
6	RIOX2	Rucaparib	OCI-P5x (serous)	3	72.9 (active)
7	RIOX2	Vehicle	OCI-C5x (clear cell)	1	48.2 (active)
8	RIOX2	Vehicle	OCI-C5x (clear cell)	2	47.6 (active)
9	RIOX2	Vehicle	OCI-C5x (clear cell)	3	51.2 (active)
10	RIOX2	Vehicle	OCI-P5x (serous)	1	60.7 (active)
11	RIOX2	Vehicle	OCI-P5x (serous)	2	77.5 (active)
12	RIOX2	Vehicle	OCI-P5x (serous)	3	68.8 (active)
13	PDZD2	Rucaparib	OCI-C5x (clear cell)	1	47.7 (active)
14	PDZD2	Rucaparib	OCI-C5x (clear cell)	2	53.9 (active)
15	PDZD2	Rucaparib	OCI-C5x (clear cell)	3	55.4 (active)
16	PDZD2	Rucaparib	OCI-P5x (serous)	1	86.6
17	PDZD2	Rucaparib	OCI-P5x (serous)	2	101
18	PDZD2	Rucaparib	OCI-P5x (serous)	3	96.3
19	PDZD2	Vehicle	OCI-C5x (clear cell)	1	46.5 (active)
20	PDZD2	Vehicle	OCI-C5x (clear cell)	2	41.6 (active)
21	PDZD2	Vehicle	OCI-C5x (clear cell)	3	55.9 (active)
22	PDZD2	Vehicle	OCI-P5x (serous)	1	94.4
23	PDZD2	Vehicle	OCI-P5x (serous)	2	88.1
24	PDZD2	Vehicle	OCI-P5x (serous)	3	86.9
25	POLL	Rucaparib	OCI-C5x (clear cell)	1	55.2 (active)
26	POLL	Rucaparib	OCI-C5x (clear cell)	2	27.7 (active)
27	POLL	Rucaparib	OCI-C5x (clear cell)	3	39.3 (active)
28	POLL	Rucaparib	OCI-P5x (serous)	1	87.8
29	POLL	Rucaparib	OCI-P5x (serous)	2	57.9 (active)
30	POLL	Rucaparib	OCI-P5x (serous)	3	62.7 (active)
31	POLL	Vehicle	OCI-C5x (clear cell)	1	57.2 (active)
32	POLL	Vehicle	OCI-C5x (clear cell)	2	57.4 (active)
33	POLL	Vehicle	OCI-C5x (clear cell)	3	47.1 (active)
34	POLL	Vehicle	OCI-P5x (serous)	1	64.5 (active)
35	POLL	Vehicle	OCI-P5x (serous)	2	63.4 (active)
36	POLL	Vehicle	OCI-P5x (serous)	3	61.9 (active)
37	BPTF	Rucaparib	OCI-C5x (clear cell)	1	30.2 (active)
38	BPTF	Rucaparib	OCI-C5x (clear cell)	2	16.6 (active)
39	BPTF	Rucaparib	OCI-C5x (clear cell)	3	23.7 (active)
40	BPTF	Rucaparib	OCI-P5x (serous)	1	42.3 (active)
41	BPTF	Rucaparib	OCI-P5x (serous)	2	45.2 (active)
42	BPTF	Rucaparib	OCI-P5x (serous)	3	45.3 (active)
43	BPTF	Vehicle	OCI-C5x (clear cell)	1	18.5 (active)
44	BPTF	Vehicle	OCI-C5x (clear cell)	2	24.7 (active)
45	BPTF	Vehicle	OCI-C5x (clear cell)	3	22.4 (active)
46	BPTF	Vehicle	OCI-P5x (serous)	1	52.4 (active)
47	BPTF	Vehicle	OCI-P5x (serous)	2	56.9 (active)
48	BPTF	Vehicle	OCI-P5x (serous)	3	63.4 (active)

Look-ups from the entries so far:
Result for BPTF, rucaparib or vehicle Rucaparib, cell line OCI-P5x (serous), technical replicate 3 in “viability, normalised (%)”: 45.3 (active)
BPTF, rucaparib or vehicle Rucaparib, cell line OCI-C5x (clear cell), technical replicate 1, viability, normalised (%) → 30.2 (active)
Entry for BPTF, rucaparib or vehicle Rucaparib, cell line OCI-P5x (serous), technical replicate 2 under “viability, normalised (%)”: 45.2 (active)
